Data from patent US7402691B2, “Malononitrile compounds and their use as pesticides” (Sumitomo Chemical Company, Limited, priority 2001, dated 2008).
Some of these results come from one statement about several compounds together.

Columns and labels:
Assay type in all cases: in vivo
Nilaparvata lugens [1] = assay: Pesticidal test against Nilaparvata lugens, test liquid sprayed on rice plants (Test Example 1); settings: 30 first-instar larvae released
Aphis gossypii = assay: Pesticidal test against Aphis gossypii on cucumber (Test Example 3); settings: 500 ppm sprayed 20 ml/cup on cucumber plants with about 30 Aphis gossypii
Nilaparvata lugens [2] = assay: Pesticidal test against Nilaparvata lugens, rice plants stood in test liquid (Test Example 2); settings: cup with rice plants placed in 55 ml test liquid for 6 days, 30 first-instar larvae released
[3] = 500 ppm test liquid sprayed 20 ml/cup on rice plants

| SMILES | number of parasitic pests on the 6th day after the treatment (Nilaparvata lugens [1]; [3]) | number of survived pests on the 6th day after the treatment (Aphis gossypii) | number of parasitic pests on the 6th day after the treatment (Nilaparvata lugens [2]; 45.5 ppm) | number of parasitic pests on the 6th day after the treatment (Nilaparvata lugens [1]; 200 ppm test liquid sprayed 20 ml/cup on rice plants) | number of parasitic pests on the 6th day after the treatment (Nilaparvata lugens [2]; 18.2 ppm) |
| --- | --- | --- | --- | --- | --- |
| N#CC(C#N)(CCC(F)(F)C(F)(F)F)Cc1ccc(C(F)(F)F)cc1 [Compound 8, 2-(3,3,4,4,4-pentafluorobutyl)-2-(4-(trifluoromethyl)benzyl)malononitrile] | ≤ 3 | ≤ 3 | ≤ 3 | – | – |
| N#CC(C#N)(CCC(F)(F)F)Cc1ccc(Br)cc1 [Compound 9, 2-(4-bromobenzyl)-2-(3,3,3-trifluoropropyl)malononitrile] | ≤ 3 | ≤ 3 | ≤ 3 | – | – |
| N#CC(C#N)(CCC(F)(F)C(F)(F)F)Cc1ccc(OC(F)(F)F)cc1 [Compound 10, 2-(3,3,4,4,4-pentafluorobutyl)-2-(4-(trifluoromethoxy)benzyl)malononitrile] | ≤ 3 | ≤ 3 | ≤ 3 | – | – |
| N#CC(C#N)(CCC(F)F)Cc1ccc(C(F)(F)F)cc1 [Compound 11, 2-(3,3-difluoropropyl)-2-(4-(trifluoromethyl)benzyl)malononitrile] | ≤ 3 | ≤ 3 | ≤ 3 | – | – |
| N#CC(C#N)(CCC(F)(F)F)Cc1ccc([N+](=O)[O-])cc1 [Compound 18, 2-(4-nitrobenzyl)-2-(3,3,3-trifluoropropyl)malononitrile] | – | ≤ 3 | ≤ 3 | – | – |
| N#CC(C#N)(CCF)Cc1ccc(Cl)cc1 [Compound 24, 2-(4-chlorobenzyl)-2-(2-fluoroethyl)malononitrile] | ≤ 3 | ≤ 3 | – | – | – |
| C=Cc1ccc(CC(C#N)(C#N)CCC(F)(F)F)cc1 [Compound 27, 2-(3,3,3-trifluoropropyl)-2-(4-vinylbenzyl)malononitrile] | ≤ 3 | – | ≤ 3 | – | – |
| CCc1ccc(CC(C#N)(C#N)CCC(F)(F)F)cc1 [Compound 31, 2-(4-ethylbenzyl)-2-(3,3,3-trifluoropropyl)malononitrile] | ≤ 3 | – | ≤ 3 | – | – |
| CC(C)(C)c1ccc(CC(C#N)(C#N)CCC(F)(F)F)cc1 [Compound 33, 2-(4-t-butylbenzyl)-2-(3,3,3-trifluoropropyl)malononitrile] | ≤ 3 | – | ≤ 3 | – | – |
| Cc1cccc(CC(C#N)(C#N)CCC(F)(F)F)c1 [Compound 37, 2-(3-methylbenzyl)-2-(3,3,3-trifluoropropyl)malononitrile] | ≤ 3 | – | ≤ 3 | – | – |
| COc1cccc(CC(C#N)(C#N)CCC(F)(F)F)c1OC [Compound 40, 2-(2,3-dimethoxybenzyl)-2-(3,3,3-trifluoropropyl)malononitrile] | ≤ 3 | – | ≤ 3 | – | – |
| N#CC(C#N)(CCC(F)(F)F)Cc1ccc(F)cc1Cl [Compound 44, 2-(2-chloro-4-fluorobenzyl)-2-(3,3,3-trifluoropropyl)malononitrile] | ≤ 3 | – | ≤ 3 | – | – |
| N#Cc1ccc(CC(C#N)(C#N)CCF)cc1 [Compound 46, 2-(4-cyanobenzyl)-2-(2-fluoroethyl)malononitrile] | ≤ 3 | ≤ 3 | – | – | – |
| N#CC(C#N)(CCF)Cc1ccc([N+](=O)[O-])cc1 [Compound 47, 2-(4-nitrobenzyl)-2-(2-fluoroethyl)malononitrile] | – | ≤ 3 | – | – | – |
| N#CC(C#N)(CCC(F)=C(F)F)Cc1ccc(OC(F)(F)F)cc1 [Compound 49, 2-(3,4,4-trifluoro-3-butenyl)-2-(4-(trifluoromethoxy)benzyl)malononitrile] | ≤ 3 | – | ≤ 3 | – | – |
| N#CC(C#N)(CCF)Cc1ccc(Br)cc1 [Compound 51, 2-(4-bromobenzyl)-2-(2-fluoroethyl)malononitrile] | – | ≤ 3 | – | – | – |
| COc1ccc(CC(C#N)(C#N)CCF)cc1 [Compound 52, 2-(2-fluoroethyl)-2-(4-methoxybenzyl)malononitrile] | – | ≤ 3 | – | – | – |
| CC(c1ccc(Cl)cc1)C(C#N)(C#N)CCF (stereo not drawn) [Compound 53, 2-(1-(4-chlorophenyl)ethyl)-2-(2-fluoroethyl)malononitrile] | ≤ 3 | ≤ 3 | – | – | – |
| N#CC(C#N)(CCF)Cc1ccc(F)cc1 [Compound 59, 2-(4-fluorobenzyl)-2-(2-fluoroethyl)malononitrile] | ≤ 3 | ≤ 3 | – | – | – |
| N#CC(C#N)(CCF)Cc1ccc(C(F)(F)F)cc1 [Compound 64, 2-(2-fluoroethyl)-2-(4-(trifluoromethyl)benzyl)malononitrile] | ≤ 3 | ≤ 3 | – | – | – |
| N#CC(C#N)(CCF)Cc1ccc(Br)cc1F [Compound 67, 2-(4-bromo-2-fluorobenzyl)-2-(2-fluoroethyl)malononitrile] | – | ≤ 3 | – | – | – |
| N#Cc1ccc(CC(C#N)(C#N)CCC(F)=C(F)F)cc1 [Compound 68, 2-(4-cyanobenzyl)-2-(3,4,4-trifluoro-3-butenyl)malononitrile] | ≤ 3 | – | ≤ 3 | – | – |
| N#CC(C#N)(CCF)Cc1ccccc1Br [Compound 69, 2-(2-bromobenzyl)-2-(2-fluoroethyl)malononitrile] | – | ≤ 3 | – | – | – |
| N#CC(C#N)(Cc1ccc(C(F)(F)F)cc1)CC(F)(F)F [Compound 72, 2-(2,2,2-trifluoroethyl)-2-(4-(trifluoromethyl)benzyl)malononitrile] | ≤ 3 | – | ≤ 3 | – | – |
| N#CC(C#N)(CCC(F)=C(F)F)Cc1ccc(C(F)(F)F)cc1 [Compound 73, 2-(3,4,4-trifluoro-3-butenyl)-2-(4-(trifluoromethyl)benzyl)malononitrile] | ≤ 3 | – | ≤ 3 | – | – |
| N#CC(C#N)(Cc1ccc(C(F)(F)F)cc1)CC(F)(F)C(F)(F)F [Compound 76, 2-(2,2,3,3,3-pentafluoropropyl)-2-(4-(trifluoromethyl)benzyl)malononitrile] | ≤ 3 | – | – | ≤ 3 | ≤ 3 |
| COc1ccc(CC(C#N)(C#N)CCC(F)(F)F)cc1 [Compound 89, 2-(4-methoxybenzyl)-2-(3,3,3-trifluoropropyl)malononitrile] | ≤ 3 | – | ≤ 3 | – | – |
